Binding data for one molecule are collected here from article PMC6828672.

In this test the target is ΔBTB-KCASH2-Flag, the KCASH2 C-terminal region (human). Put plainly: co-IP; lysates of co-transfected HEK293T cells (50 mM Tris-HCl pH 7.6, 1% deoxycholate, 150 mM NaCl, 1% NP40, 5 mM EDTA, 100 mM NaF) incubated with anti-Flag M2 agarose beads 2 h at 4 °C; Western blot.

Results are given in words; binding and its absence hold for the method and conditions named. Binding seen in cells or lysates may run through a third protein. Where a sequence is shown, tags or fusion partners need not be part of it.

B1: HA-tagged KCTD15, full length (protein, UniProt Q96SI1 1-283)
chain: MPHRKERPSGSSLHTHGSTGTAEGGNMSRLSLTRSPVSPLAAQGIPLPAQLTKSNAPVHIDVGGHMYTSSLATLTKYPDSRISRLFNGTEPIVLDSLKQHYFIDRDGEIFRYVLSFLRTSKLLLPDDFKDFSLLYEEARYYQLQPMVRELERWQQEQEQRRRSRACDCLVVRVTPDLGERIALSGEKALIEEVFPETGDVMCNSVNAGWNQDPTHVIRFPLNGYCRLNSVQVLERLFQRGFSVAASCGGGVDSSQFSEYVLCREERRPQPTPTAVRIKQEPLD
B1: the binding result is recorded as “no binding”.
